From publication PMC7819943, “Rice protein-binding microarrays: a tool to detect cis-acting elements near promoter regions in rice”
This is one part of the list.

Protein sequences, listed by entry. Tags and fused reporters are not part of them.
UniProt Q0JBA9, entry or part of it: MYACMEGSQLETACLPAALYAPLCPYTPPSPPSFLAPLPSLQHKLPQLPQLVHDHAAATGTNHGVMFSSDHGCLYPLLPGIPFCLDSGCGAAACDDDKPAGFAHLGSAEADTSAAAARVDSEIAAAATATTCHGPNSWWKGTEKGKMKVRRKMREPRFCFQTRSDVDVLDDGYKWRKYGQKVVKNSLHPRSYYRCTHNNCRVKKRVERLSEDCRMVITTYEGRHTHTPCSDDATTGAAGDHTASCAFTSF

Target: OsWRKY34 (Oryza sativa, UniProt Q0JBA9 1-250)
Assay: protein-binding microarray (RPBM); PBS, 2% BSA, 51.3 ng/ul salmon testes DNA, 50 uM zinc acetate, 200 nM TF, 25 C, 1 h; high values mean tight binding
Conditions: protein: recombinant; tags: N-terminal polyhistidine and DsRed monomer fusion (pET32a); label: CyDye5-dUTP incorporated in the synthesized complementary strand; 3' TTTTT single-stranded linker to array surface; dsDNA, one strand shown
Summary of the method: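 An Axon 4000B scanner gave the binding signal as per-feature fluorescence intensity in arbitrary units. This followed washing of a custom Agilent array that had been incubated for 1 h at 25 °C with 200 nM protein in PBS, 2% BSA, salmon testes DNA and 50 µM zinc acetate. The proteins were transcription factors fused at the N-terminus to polyhistidine and DsRed, expressed in E. coli BL21-CodonPlus and purified on Ni–NTA.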

In order of falling binding signal:
1. CGTTGACTTTTTAGTACGTGTTTGACCATTCGTCTTATTCCGGAGTCACCTAGTGCAG  30200 fluorescence intensity (a.u.)
2. TGTTTTCTTCATTTCTTGCACGTACTATCATGTATTTATTCGGAGTCACCTAGTGCAG  15200 fluorescence intensity (a.u.)
3. GAGGTGGCTGGAGTGGGGTTTAGTGTTGGTTGTTAGGGATCGGAGTCACCTAGTGCAG  13500 fluorescence intensity (a.u.)
4. GTCCTTATCTGCTCATCGTCCTCACCAAATTGGCAAACTCCGGAGTCACCTAGTGCAG  13500 fluorescence intensity (a.u.)
5. CTTCATTTCCTCATATGCCATCCACACCATCTGACTATTTCGGAGTCACCTAGTGCAG  12100 fluorescence intensity (a.u.)
6. TTCTCCTGTACCTTTTTATATATGTTATTTTTTAGTCAATCGGAGTCACCTAGTGCAG  11400 fluorescence intensity (a.u.)
7. TATTTTATGCGTGACTTATCTTTTTAATTTTTTTCATAATCGGAGTCACCTAGTGCAG  11100 fluorescence intensity (a.u.)
8. CCGCCATCGCTCACCGGTCCCGCCGCCACTCGCCGCTCGTCGGAGTCACCTAGTGCAG  10800 fluorescence intensity (a.u.)
9. CCGTGACAAGTGACTCAAATATGTTTCTTTTATTCCATTTCGGAGTCACCTAGTGCAG  10800 fluorescence intensity (a.u.)
10. AGTTTATAGTTGACTTATAGTCTACTGTTATCCTTGCTATCGGAGTCACCTAGTGCAG  10700 fluorescence intensity (a.u.)
11. CCCATCACGATCTTTTGCATGCGTATTGACTGTTGAGCCCCGGAGTCACCTAGTGCAG  10600 fluorescence intensity (a.u.)
12. TGTGGTTGAATGAGTAGTAGAAGTAGGTGGTAAAAGTGAACGGAGTCACCTAGTGCAG  10500 fluorescence intensity (a.u.)
13. CGAATCCACTCGCCCCTCGCGTCGCCTCGCCGCACCAATGCGGAGTCACCTAGTGCAG  10400 fluorescence intensity (a.u.)
14. ACACCACATCTAATTCTAGGTTTTTTTTTCTTTTGGGGCGCGGAGTCACCTAGTGCAG  10400 fluorescence intensity (a.u.)
15. TCTGTTTTTTTTCTCTCTTCCGTACCTTTTTCGGTTTTCTCGGAGTCACCTAGTGCAG  10300 fluorescence intensity (a.u.)
16. ACTCGGTCACTCTCACTCTTCATTTCGTCGAACACCTTTGCGGAGTCACCTAGTGCAG  10200 fluorescence intensity (a.u.)
17. AACCAGTTCCTTGACTCCACCCTATGTTCCTAAGTCCAAACGGAGTCACCTAGTGCAG  10100 fluorescence intensity (a.u.)
18. CCAACTTTTTATCGTCCGTCTTATTTGAAAAATTTTTATACGGAGTCACCTAGTGCAG  10000 fluorescence intensity (a.u.)
19. TGGGCATTCGTTCCACATATCCTGTGACCCCTTCTCTCATCGGAGTCACCTAGTGCAG  9710 fluorescence intensity (a.u.)
20. ATCAGGTGGTTTTTGTGGTGTTCATGTATAAGCTCATCTCCGGAGTCACCTAGTGCAG  9710 fluorescence intensity (a.u.)
21. CGGGTTGGGAATTGGAATTTGCATCTATCTGCCATAGAAGCGGAGTCACCTAGTGCAG  9700 fluorescence intensity (a.u.)
22. TGAACGTTTGCCCTTGTCAACCAATTCTCAGTGGCTTCTGCGGAGTCACCTAGTGCAG  9600 fluorescence intensity (a.u.)
23. ATAGTTAAATTGCCCCTCACAACACCACCTGTCGCTGATTCGGAGTCACCTAGTGCAG  9460 fluorescence intensity (a.u.)
24. AGTGTAATATCCGGTCTTTTTATTTTTATTTAAAACCATACGGAGTCACCTAGTGCAG  9360 fluorescence intensity (a.u.)
25. ATCACGAGTACACTAGCTGAAACATCGTAAAACTACTGGGCGGAGTCACCTAGTGCAG  9360 fluorescence intensity (a.u.)
26. CTCAGTCAGTCGGTCAGCCACCATTTTAGTACTAGAACAGCGGAGTCACCTAGTGCAG  8990 fluorescence intensity (a.u.)
27. GCGAGGTCTTTCCCATTCGCTGCCTCCTCCGCCGCACTCACGGAGTCACCTAGTGCAG  8860 fluorescence intensity (a.u.)
28. GCGTGCTCCGCGCCTCCGCCAGATCACGATCTCCTCTTCACGGAGTCACCTAGTGCAG  8860 fluorescence intensity (a.u.)
29. CGAGACCGACTGATGCTACAACTTCTGTCCTTGCTCCGGCCGGAGTCACCTAGTGCAG  8620 fluorescence intensity (a.u.)
30. ATCATCAGTGGCATACAAGAATTCAACTTCCAATGGCTTACGGAGTCACCTAGTGCAG  8560 fluorescence intensity (a.u.)
31. CATCACTTTTGTCACCCAATTCATTTTTCTTTAAAAATATCGGAGTCACCTAGTGCAG  8530 fluorescence intensity (a.u.)
32. CCTGGGGCGCGTTTCCACTGCTTAAACCTTAAGCAAACCCCGGAGTCACCTAGTGCAG  8430 fluorescence intensity (a.u.)
33. ATTTGTCATTTTTTCTATGTGTATATGTTGTATTTTGAGCCGGAGTCACCTAGTGCAG  8430 fluorescence intensity (a.u.)
34. GTCTCAATACATTTTCTGCCATGTATGGGCATATGCCTCTCGGAGTCACCTAGTGCAG  8350 fluorescence intensity (a.u.)
35. TTAAACTTACTAAACATATGGTTTTGTGACACTTCATTTTCGGAGTCACCTAGTGCAG  8290 fluorescence intensity (a.u.)
36. ATGGTCACATATCATGTCAAATAGGCCTGAAGTTTGTACACGGAGTCACCTAGTGCAG  8280 fluorescence intensity (a.u.)
37. CCACCGCCAGTCCGCCACCTCCACCTCCACCTCCACCCGACGGAGTCACCTAGTGCAG  8270 fluorescence intensity (a.u.)
38. TCTCGTCGTCTTCTTCGTCTCCCTACCTCCTCTTACCTCACGGAGTCACCTAGTGCAG  8200 fluorescence intensity (a.u.)
39. ATGCATTTACCTGGTCTTTTTGGGTTGTGCGGCCACTTTCCGGAGTCACCTAGTGCAG  8130 fluorescence intensity (a.u.)
40. GACCAAACCTGTACTTGCTTCCCGCGACCGTATCCATCTTCGGAGTCACCTAGTGCAG  8120 fluorescence intensity (a.u.)
41. GGGGTCTCGCTGAGTCGCCTGTCGCCGTCTCGGCTGCTCCCGGAGTCACCTAGTGCAG  8050 fluorescence intensity (a.u.)
42. CCTCGCCTTGCCTCGCTGCGTCACCAACCTTGACGGCGACCGGAGTCACCTAGTGCAG  8030 fluorescence intensity (a.u.)
